Paper PMC2696091
Results are given in words; binding and its absence hold for the method and conditions named. Some results given as binding are weak or reduced against the parent protein; the word gives no strength.

Target: TAP-Raf-1 (Protein A and Flag-tagged Raf-1) (UniProt P04049)
Test: pull-down; TAP-Raf-1 from serum-starved H19-7 cell lysate held on IgG sepharose beads, washed; incubated with RKIP (5 µg) for 30 min at 4°C in 10 mM HEPES pH 7.4, 3 mM MgCl2, 10 mM KCl, 150 mM NaCl, with increasing concentrations of locostatin or DHPE; bound RKIP detected by anti-RKIP immunoblot; both …

B1: Raf Kinase Inhibitory Protein (protein, UniProt P31044 1-187)
chain: MAADISQWAGPLSLQEVDEPPQHALRVDYGGVTVDELGKVLTPTQVMNRPSSISWDGLDPGKLYTLVLTDPDAPSRKDPKFREWHHFLVVNMKGNDISSGTVLSEYVGSGPPKDTGLHRYVWLVYEQEQPLNCDEPILSNKSGDNRGKFKVESFRKKYHLGAPVAGTCFQAEWDDSVPKLHDQLAGK
For B1, the binding was “binds”.
